In doi:10.1101/2021.12.07.471565:
These are yes or no findings as the source states them, for the method shown. Binding seen in cells or lysates may run through a third protein. Some entries that bind do so weakly or less than the wild type. Sequences can lack the tags named with a protein.

T1: Arabidopsis thaliana REGULATOR OF G … 1 protein (AtRGS1), split-luciferase fusion (Arabidopsis thaliana) (UniProt Q8H1F2)
T1 sequence: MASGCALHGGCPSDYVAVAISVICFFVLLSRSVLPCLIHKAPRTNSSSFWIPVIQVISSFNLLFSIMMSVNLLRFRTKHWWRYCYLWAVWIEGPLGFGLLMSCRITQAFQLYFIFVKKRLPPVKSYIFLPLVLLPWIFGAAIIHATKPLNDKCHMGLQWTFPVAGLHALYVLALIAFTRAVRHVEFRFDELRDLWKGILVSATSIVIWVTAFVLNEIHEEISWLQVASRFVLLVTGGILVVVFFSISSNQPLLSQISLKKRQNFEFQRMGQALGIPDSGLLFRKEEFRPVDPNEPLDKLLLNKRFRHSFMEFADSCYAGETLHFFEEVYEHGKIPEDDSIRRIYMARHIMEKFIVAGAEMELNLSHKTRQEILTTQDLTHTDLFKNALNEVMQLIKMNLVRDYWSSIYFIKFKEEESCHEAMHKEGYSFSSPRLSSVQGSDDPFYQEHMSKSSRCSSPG

T2: AGB1/AGG1 (Gβγ): AtAGB1-nLUC co-expressed with mCherry-AtAGG1 (Arabidopsis thaliana) (UniProt P49177+Q9FDX9)
T2 sequence 1: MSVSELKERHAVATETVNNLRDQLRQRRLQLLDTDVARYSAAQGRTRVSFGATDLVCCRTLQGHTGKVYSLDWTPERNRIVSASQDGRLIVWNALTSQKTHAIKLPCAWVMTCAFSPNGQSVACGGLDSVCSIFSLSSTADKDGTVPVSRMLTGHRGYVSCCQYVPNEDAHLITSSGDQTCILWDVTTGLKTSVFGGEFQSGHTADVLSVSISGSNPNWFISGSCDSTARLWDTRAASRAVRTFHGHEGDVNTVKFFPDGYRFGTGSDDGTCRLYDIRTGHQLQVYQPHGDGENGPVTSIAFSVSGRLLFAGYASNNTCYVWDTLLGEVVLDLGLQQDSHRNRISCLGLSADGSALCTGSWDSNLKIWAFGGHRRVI
T2 sequence 2: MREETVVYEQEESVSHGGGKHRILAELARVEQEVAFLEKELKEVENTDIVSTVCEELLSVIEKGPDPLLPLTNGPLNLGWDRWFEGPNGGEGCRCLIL

T3: AGB1, Gβ subunit, nLUC fusion, expressed without AGG1 (Arabidopsis thaliana), P49177
T3 chain: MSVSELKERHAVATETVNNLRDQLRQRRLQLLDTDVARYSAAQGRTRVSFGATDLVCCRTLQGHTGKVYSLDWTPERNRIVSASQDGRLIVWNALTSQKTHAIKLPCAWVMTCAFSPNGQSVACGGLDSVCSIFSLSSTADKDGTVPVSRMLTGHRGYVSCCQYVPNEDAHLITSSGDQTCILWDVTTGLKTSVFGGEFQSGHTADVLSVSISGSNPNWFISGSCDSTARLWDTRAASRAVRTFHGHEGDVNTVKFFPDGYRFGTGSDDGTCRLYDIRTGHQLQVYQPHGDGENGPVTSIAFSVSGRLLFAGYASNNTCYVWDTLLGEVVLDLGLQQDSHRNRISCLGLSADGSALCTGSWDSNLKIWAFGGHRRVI


Legend:
Test in all cases: split reporter
[1] = target: T1, Arabidopsis thaliana REGULATOR OF G … 1 protein (AtRGS1), split-luciferase fusion (Arabidopsis thaliana)
[2] = target: T2, AGB1/AGG1 (Gβγ): AtAGB1-nLUC co-expressed with mCherry-AtAGG1 (Arabidopsis thaliana)
[3] = target: T3, AGB1, Gβ subunit, nLUC fusion, …; details: remark: other sources report otherwise

| binding [1] | Binder | other results |
| --- | --- | --- |
| no binding | ATBβ, PP2A regulatory B subunit, beta isoform, nLUC fusion (protein, UniProt Q39247 1-501) MNGGDDAATSGPPPSLEWRFSQVFGERTAGEEVQEVDIISAIEFDKSGDHLATGDRGGRVVLFERTDTKDHGGSRKDLEQTDYPVRHPEFRYKTEFQSHEPEFDYLKSLEIEEKINKIRWCQPANGALFLLSTNDKTIKYWKVQEKKIKKISEMNIDPSESSNIPPQLVTNGLPADKGHDYLSKDFSFPPGGIPSLRLPVVVTSQETNLVARCRRVYAHAHDYHINSISNSSDGETFISADDLRVNLWNLEISNQSFNIVDVKPTNMEDLTEVITSAEFHPIHCNMLAYSSSKGSIRLIDMRQSALCDSHTKLFEEPEAPGSRSFFTEIIASISDIKFSKDGRYILSRDYMTLKLWDINMDSGPVASYQVHEHLRPRLCDLYENDSIFDKFECCLSGDGLRVATGSYSNLFRVFGASQGSTEAATLEASKNPMRRQIQTPARPSRSIGSMTRVVRRGSESPGTEANGNAYDFTTKLLHMAWHPTENSIACAAANSLYMYYA |  |
| binds | ATBα, PROTEIN PHOSPHATASE 2A (PP2A) regulatory B subunit, alpha isoform, nLUC fusion (protein, UniProt Q38821 1-513) MNGGDEVVAASADPSLPLEWRFSQVFGERSAGEEVQEVDIISAIEFDNSGNHLATGDRGGRVVLFERTDTNNSSGTRRELEEADYPLRHPEFRYKTEFQSHDPEFDYLKSLEIEEKINKIRWCQTANGALFLLSTNDKTIKFWKVQDKKIKKICDMNSDPSRTVGNGTVASSSNSNITNSCLVNGGVSEVNNSLCNDFSLPAGGISSLRLPVVVTSHESSPVARCRRVYAHAHDYHINSISNNSDGETFISADDLRINLWNLEISNQSFNIVDVKPAKMEDLSEVITSAEFHPTHCNMLAYSSSKGSIRLIDLRQSALCDSHSKLFEEPEQAGPKSFFTEIIASVSDIKFAKEGRYLLSRDYMTLKLWDINMDAGPVATFQVHEYLKPKLCDLYENDSIFDKFECCISGNGLRAATGSYSNLFRVFGVAPGSTETATLEASRNPMRRHVPIPSRPSRALSSITRVVSRGSESPGVDGNTNALDYTTKLLHLAWHPNENSIACAAANSLYMYYA |  |
|  | AtGPA1, canonical Gα subunit, cLUC fusion (protein, UniProt P18064 1-383) MGLLCSRSRHHTEDTDENTQAAEIERRIEQEAKAEKHIRKLLLLGAGESGKSTIFKQIKLLFQTGFDEGELKSYVPVIHANVYQTIKLLHDGTKEFAQNETDSAKYMLSSESIAIGEKLSEIGGRLDYPRLTKDIAEGIETLWKDPAIQETCARGNELQVPDCTKYLMENLKRLSDINYIPTKEDVLYARVRTTGVVEIQFSPVGENKKSGEVYRLFDVGGQRNERRKWIHLFEGVTAVIFCAAISEYDQTLFEDEQKNRMMETKELFDWVLKQPCFEKTSFMLFLNKFDIFEKKVLDVPLNVCEWFRDYQPVSSGKQEIEHAYEFVKKKFEELYYQNTAPDRVDRVFKIYRTTALDQKLVKKTFKLVDETLRRRNLLEAGLL | binding [2]: binds |
|  | AtGPA1, canonical Gα subunit, cLUC fusion, P18064 1-383 (protein) MGLLCSRSRHHTEDTDENTQAAEIERRIEQEAKAEKHIRKLLLLGAGESGKSTIFKQIKLLFQTGFDEGELKSYVPVIHANVYQTIKLLHDGTKEFAQNETDSAKYMLSSESIAIGEKLSEIGGRLDYPRLTKDIAEGIETLWKDPAIQETCARGNELQVPDCTKYLMENLKRLSDINYIPTKEDVLYARVRTTGVVEIQFSPVGENKKSGEVYRLFDVGGQRNERRKWIHLFEGVTAVIFCAAISEYDQTLFEDEQKNRMMETKELFDWVLKQPCFEKTSFMLFLNKFDIFEKKVLDVPLNVCEWFRDYQPVSSGKQEIEHAYEFVKKKFEELYYQNTAPDRVDRVFKIYRTTALDQKLVKKTFKLVDETLRRRNLLEAGLL | binding [3]: no binding |
